Assay results as given in PMC5402979, “Tissue-specific enhancer repression through molecular integration of cell signaling inputs”.
These are yes or no findings as the source states them, for the method shown. In cells and extracts the contact can be indirect.

Protein sequences, listed by entry. Tags and fused reporters are not part of them. Residues count along the entry.
UniProt P20009, residues 120-188: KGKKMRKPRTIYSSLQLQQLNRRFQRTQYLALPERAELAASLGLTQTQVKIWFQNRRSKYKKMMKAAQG
UniProt Q06453, residues 86-156: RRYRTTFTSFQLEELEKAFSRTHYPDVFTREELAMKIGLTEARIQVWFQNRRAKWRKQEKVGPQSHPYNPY

Target: GST-Dll^HD (Distal-less homeodomain, GST fusion) (D. melanogaster) (UniProt P20009)
Assay: pull-down; purified GST-HD fusion as bait, ^35S-labelled in vitro translated homeodomain (rabbit reticulocyte TNT) as prey; done in duplicate, as described in ref. 38; only the target purified

binding: no binding
Substance: in vitro translated Al homeodomain (amino acids 86-156) (from UniProt Q06453 86-156) (domain or fragment)
